In patent US20110053770A1, “SUBSTITUTED AMINOTHIAZOLES AND THEIR USE AS FUNGICIDES” (BAYER CROPSCIENCE AG, priority 2009, published 2011):
Some of these results come from one statement about several compounds together.

What follows are compounds tested on Sphaerotheca fuliginea (assay: Sphaerotheca test (cucumber)/protective). Conditions: cucumber plants, protective, 500 ppm active compound, evaluation 7 days after inoculation.
Assay type: in vivo
For `Cc1ccc(Oc2ccccc2-c2csc(N=C3CCCCN3)n2)c(C)c1` [compound 1, 4-[2-(2,4-dimethylphenoxy)phenyl]-N-[(2E/Z)-piperidin-2-ylidene]-1,3-thiazole-2-amine], the efficacy was at least 70%.
Work on `Clc1ccc(-c2csc(N=C3CCCCN3)n2)cc1` [compound 2, 4-(4-chlorophenyl)-N-[(2E/Z)-piperidin-2-ylidene]-1,3-thiazole-2-amine] yielded an efficacy of at least 70%.
With `FC(F)(F)c1cc(-c2csc(N=C3CCCCN3)n2)cc(C(F)(F)F)c1` [compound 6, 4-[3,5-bis(trifluoromethyl)phenyl]-N-[(2E/Z)-piperidin-2-ylidene]-1,3-thiazole-2-amine] the efficacy was at least 70%.
Compound `CC(C)(C)c1cc(Oc2ccccc2-c2csc(N=C3CCCCN3)n2)ccc1Cl` [compound 12, 4-[2-(3-tert-butyl-4-chlorophenoxy)phenyl]-N-[(2E/Z)-piperidin-2-ylidene]-1,3-thiazole-2-amine] has an efficacy of at least 70%.
With `CC(C)(C)c1cccc(Oc2ccccc2-c2csc(N=C3CCCCN3)n2)c1` [compound 13, 4-[2-(3-tert-butylphenoxy)phenyl]-N-[(2E/Z)-piperidin-2-ylidene]-1,3-thiazole-2-amine] the efficacy was at least 70%.
`FC(F)(F)Oc1ccccc1-c1csc(N=C2CCCCN2)n1` [compound 15, N-[(2E/Z)-piperidin-2-ylidene]-4-[2-(trifluoromethoxy)phenyl]-1,3-thiazole-2-amine] was tested, and the efficacy was at least 70%.
Work on `Fc1ccc(F)c(-c2csc(N=C3CCCCN3)n2)c1` [compound 19, 4-(2,5-difluorophenyl)-N-[(2E/Z)-piperidin-2-ylidene]-1,3-thiazole-2-amine] yielded an efficacy of at least 70%.
`Clc1ccccc1-c1csc(N=C2CCCCN2)n1` [compound 20, 4-(2-chlorophenyl)-N-[(2E/Z)-piperidin-2-ylidene]-1,3-thiazole-2-amine] gave an efficacy of at least 70%.
`FC(F)(F)c1ccccc1-c1csc(N=C2CCCCN2)n1` [compound 21, N-[(2E/Z)-piperidin-2-ylidene]-4-[2-(trifluoromethyl)phenyl]-1,3-thiazole-2-amine] showed an efficacy of at least 70%.
For `CCOc1ccccc1-c1csc(N=C2CCCCN2)n1` [compound 23, 4-(2-ethoxyphenyl)-N-[(2E/Z)-piperidin-2-ylidene]-1,3-thiazole-2-amine], the efficacy was at least 70%.
`Fc1cccc(-c2csc(N=C3CCCCN3)n2)c1F` [compound 25, 4-(2,3-difluorophenyl)-N-[(2E/Z)-piperidin-2-ylidene]-1,3-thiazole-2-amine] gave an efficacy of at least 70%.
Compound `Fc1cc(F)cc(-c2csc(N=C3CCCCN3)n2)c1` [compound 29, 4-(3,5-difluorophenyl)-N-[(2E/Z)-piperidin-2-ylidene]-1,3-thiazole-2-amine] has an efficacy of at least 70%.
Compound `Fc1ccc(-c2csc(N=C3CCCCN3)n2)cc1Cl` [compound 30, 4-(3-chloro-4-fluorophenyl)-N-[(2E/Z)-piperidin-2-ylidene]-1,3-thiazole-2-amine] has an efficacy of at least 70%.
`CC(=O)N1CCCCC1=Nc1nc(-c2cccc(Cl)c2Cl)cs1` [compound 36, 1-[(2E/Z)-2-{[4-(2,3-dichlorophenyl)-1,3-thiazol-2-yl]imino}piperidin-1-yl]ethanone] gave an efficacy of at least 70%.
`CC(=O)N1CCCCC1=Nc1nc(-c2cccc(F)c2F)cs1` [compound 37, 1-[(2E/Z)-2-{[4-(2,3-difluorophenyl)-1,3-thiazol-2-yl]imino}piperidin-1-yl]ethanone] was tested, and the efficacy was at least 70%.
For `CC(=O)N1CCCCC1=Nc1nc(-c2cccc(C(F)(F)F)c2F)cs1` [compound 38, 1-[(2E/Z)-2-({4-[2-fluoro-3-(trifluoromethyl)phenyl]-1,3-thiazol-2-yl}imino)piperidin-1-yl]ethanone], the efficacy was at least 70%.
`CC(=O)N1CCCCC1=Nc1nc(-c2cc(F)cc(F)c2)cs1` [compound 40, 1-[(2E/Z)-2-{[4-(3,5-difluoro-phenyl)-1,3-thiazol-2-yl]imino}piperidin-1-yl]ethanone] showed an efficacy of at least 70%.
For `FC(F)(F)c1cccc(-c2csc(N=C3CCCCN3)n2)c1` [compound 45, N-[(2E/Z)-piperidin-2-ylidene]-4-[3-(trifluoromethyl)phenyl]-1,3-thiazole-2-amine], the efficacy was at least 70%.
In the case of `Brc1cccc(-c2csc(N=C3CCCCN3)n2)c1` [compound 46, 4-(3-bromophenyl)-N-[(2E/Z)-piperidin-2-ylidene]-1,3-thiazole-2-amine], the efficacy is reported as at least 70%.
`Brc1ccccc1-c1csc(N=C2CCCCN2)n1` [compound 48, 4-(2-bromophenyl)-N-[(2E/Z)-piperidin-2-ylidene]-1,3-thiazole-2-amine] showed an efficacy of at least 70%.
`Clc1ccc(-c2csc(N=C3CCCCN3)n2)cc1Cl` [compound 52, 4-(3,4-dichlorophenyl)-N-[(2E/Z)-piperidin-2-ylidene]-1,3-thiazole-2-amine] gave an efficacy of at least 70%.
With `Clc1ncccc1-c1csc(N=C2CCCCN2)n1` [compound 53, 4-(2-chloropyridin-3-yl)-N-[(2E/Z)-piperidin-2-ylidene]-1,3-thiazole-2-amine] the efficacy was at least 70%.
In the case of `Clc1cc(Cl)cc(-c2csc(N=C3CCCCN3)n2)c1` [compound 55, 4-(3,5-dichlorophenyl)-N-[(2E/Z)-piperidin-2-ylidene]-1,3-thiazole-2-amine], the efficacy is reported as at least 70%.
`Clc1cccc(-c2csc(N=C3CCCCN3)n2)c1` [compound 59, 4-(3-chlorophenyl)-N-[(2E/Z)-piperidin-2-ylidene]-1,3-thiazole-2-amine] showed an efficacy of at least 70%.
`Cc1cccc(-c2csc(N=C3CCCCN3)n2)c1` [compound 60, 4-(3-methylphenyl)-N-[(2E/Z)-piperidin-2-ylidene]-1,3-thiazole-2-amine] gave an efficacy of at least 70%.
Compound `c1ccc(-c2csc(N=C3CCCCN3)n2)nc1` [compound 61, N-[(2E/Z)-piperidin-2-ylidene]-4-(pyridin-2-yl)-1,3-thiazole-2-amine] has an efficacy of at least 70%.
Compound `COc1ccc(-c2ccccc2-c2csc(N=C3CCCCN3)n2)cc1` [compound 67, 4-(4′-methoxybiphenyl-2-yl)-N-[(2E/Z)-piperidin-2-ylidene]-1,3-thiazole-2-amine] has an efficacy of at least 70%.
With `Clc1ccccc1Cc1csc(N=C2CCCCN2)n1` [compound 69, 4-(2-chlorobenzyl)-N-[(2E/Z)-piperidin-2-ylidene]-1,3-thiazole-2-amine] the efficacy was at least 70%.
In the case of `Cc1cccc(-c2cccc(-c3csc(N=C4CCCCN4)n3)c2)c1` [compound 71, 4-(3′-methylbiphenyl-3-yl)-N-[(2E/Z)-piperidin-2-ylidene]-1,3-thiazole-2-amine], the efficacy is reported as at least 70%.
`CC(c1ccccc1)c1csc(N=C2CCCCN2)n1` (stereo not drawn) [compound 73, 4-(1-phenylethyl)-N-[(2E/Z)-piperidin-2-ylidene]-1,3-thiazole-2-amine] showed an efficacy of at least 70%.
In the case of `Clc1ccc(Oc2ccccc2-c2csc(N=C3CCCCN3)n2)cc1` [compound 74, 4-[2-(4-chlorophenoxy)phenyl]-N-[(2E/Z)-piperidin-2-ylidene]-1,3-thiazole-2-amine], the efficacy is reported as at least 70%.
In the case of `Fc1cccc(F)c1Oc1ccccc1-c1csc(N=C2CCCCN2)n1` [compound 76, 4-[2-(2,6-difluorophenoxy)phenyl]-N-[(2E/Z)-piperidin-2-ylidene]-1,3-thiazole-2-amine], the efficacy is reported as at least 70%.
Compound `Fc1ccc(Oc2ccccc2-c2csc(N=C3CCCCN3)n2)c(F)c1F` [compound 77, N-[(2E/Z)-piperidin-2-ylidene]-4-[2-(2,3,4-trifluorophenoxy)phenyl]-1,3-thiazole-2-amine] has an efficacy of at least 70%.
With `Fc1ccc(Oc2ccccc2-c2csc(N=C3CCCCN3)n2)cc1F` [compound 78, 4-[2-(3,4-difluorophenoxy)phenyl]-N-[(2E/Z)-piperidin-2-ylidene]-1,3-thiazole-2-amine] the efficacy was at least 70%.
Work on `Cc1ccc(Oc2ccccc2-c2csc(N=C3CCCCN3)n2)cc1` [compound 79, 4-[2-(4-methylphenoxy)phenyl]-N-[(2E/Z)-piperidin-2-ylidene]-1,3-thiazole-2-amine] yielded an efficacy of at least 70%.
`Fc1ccc(F)c(Oc2ccccc2-c2csc(N=C3CCCCN3)n2)c1` [compound 80, 4-[2-(2,5-difluorophenoxy)phenyl]-N-[(2E/Z)-piperidin-2-ylidene]-1,3-thiazole-2-amine] showed an efficacy of at least 70%.
In the case of `Clc1cc(Cl)cc(Cc2ccccc2-c2csc(N=C3CCCCN3)n2)c1` [compound 89, 4-[2-(3,5-dichlorobenzyl)phenyl]-N-[(2E/Z)-piperidin-2-ylidene]-1,3-thiazole-2-amine], the efficacy is reported as at least 70%.
For `Clc1cccc(Cl)c1Cc1ccccc1-c1csc(N=C2CCCCN2)n1` [compound 91, 4-[2-(2,6-dichlorobenzyl)phenyl]-N-[(2E/Z)-piperidin-2-ylidene]-1,3-thiazole-2-amine], the efficacy was at least 70%.
Work on `Clc1ccc(Cc2ccccc2-c2csc(N=C3CCCCN3)n2)cc1Cl` [compound 92, 4-[2-(3,4-dichloro-benzyl)phenyl]-N-[(2E/Z)-piperidin-2-ylidene]-1,3-thiazole-2-amine] yielded an efficacy of at least 70%.
For `Cc1ccc(Oc2ccccc2-c2csc(N=C3CCCN3)n2)c(C)c1` [compound 95, 4-[2-(2,4-dimethylphenoxy)phenyl]-N-[(2E/Z)-pyrrolidin-2-ylidene]-1,3-thiazole-2-amine], the efficacy was at least 70%.
`Clc1ccc(-c2csc(N=C3CCCCN3)n2)cc1` [compound 103, 4-(4-chlorophenyl)-N-[(2E/Z)-piperidin-2-ylidene]-1,3-thiazole-2-amine] gave an efficacy of at least 70%.
`Clc1ccc(-c2csc(N=C3CCCCN3)n2)c(Cl)c1` [compound 104, 4-(2,4-dichlorophenyl)-N-[(2E/Z)-piperidin-2-ylidene]-1,3-thiazole-2-amine] gave an efficacy of at least 70%.
Work on `FC(F)(F)c1cccc(-c2csc(N=C3CCCCN3)n2)c1` [compound 105, N-[(2E/Z)-piperidin-2-ylidene]-4-[3-(trifluoromethyl)phenyl]-1,3-thiazole-2-amine] yielded an efficacy of at least 70%.
Work on `Brc1cccc(-c2csc(N=C3CCCCN3)n2)c1` [compound 106, 4-(3-bromophenyl)-N-[(2E/Z)-piperidin-2-ylidene]-1,3-thiazole-2-amine] yielded an efficacy of at least 70%.
Work on `Brc1ccccc1-c1csc(N=C2CCCCN2)n1` [compound 107, 4-(2-bromophenyl)-N-[(2E/Z)-piperidin-2-ylidene]-1,3-thiazole-2-amine] yielded an efficacy of at least 70%.
